Reference: PubChem BioAssay AID2685 (National Center for Advancing Translational Sciences (NCATS), 2010)
Among all 320,000 compounds or so, about 2,100 (0.66%) were called active. The shares of active, inactive and inconclusive entries below differ from those in the screen. The call rests on the fitted dose curve; in most records, active means well fitted inhibition curve with a large enough effect in the signal ratio, with a control signal flat (not every such curve was filed as active); inconclusive means small, poorly fitted or top-dose-only effect, or effect the other way, or a change in a side signal; inactive means flat fitted curve, though single readings scatter; the % refers to the signal ratio. Potencies of inconclusive entries are doubtful fits and often do not repeat.

Assay: qHTS Assay for Lipid Storage Modulators in Drosophila S3 Cells
Settings: BODIPY lipid droplet fluorescence, 18-24 h, cells fed with added oleic acid; lipid storage change, negative = inhibition: at 46.1 µM (top of the series) unless noted
In short: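 Drosophila S3 cells got compounds at several concentrations plus oleic acid (400 uM solution). Laser-scanning cytometry with 488 nm excitation read lipid droplets at 500-530 nm and cells at 575-640 nm. Percent activity was relative to 20 uM Triacsin C.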
On the % scale 0 is the no-effect control and ±100 the full control effect; potency means the concentration at half of the fitted maximal effect.

For `CCOc1cc(C(C(=O)NCC2CCCO2)N(C(=O)Cn2nnc3ccccc32)c2ccc(OC)c(OC)c2)ccc1O` (stereo not given), which Potency is on record?
Its Potency is inconclusive: 3.66 µM [falling, single point].

For `CCC(CC)C(=O)N1c2ccc(F)cc2CCC1C` (stereo not given), which lipid storage change, negative = inhibition is on record?
Its lipid storage change, negative = inhibition is inconclusive: 12.3%.

Which lipid storage change, negative = inhibition does the source give for `CCOC(=O)c1c(-c2ccc(C)o2)csc1NC(=O)CSc1nnc(C)s1` here?
Its lipid storage change, negative = inhibition is inconclusive: 18.5%.

For `CCN(CC)CCNC(=O)Cn1nc(Cc2cccnc2)c2ccccc2c1=O`, which Potency is on record?
The Potency was inconclusive: 3.26 µM [cytotoxic, single point].

For `C=CCNC(=O)/C(C#N)=C/c1c(N2CC(C)OC(C)C2)nc2ccccn2c1=O` (stereo not given), which Potency is on record?
Its Potency is inconclusive: 0.0052 µM [activator, full curve, poor fit].

Which “lipid storage change, negative = inhibition” value does the source give for `Cc1c(C)c2ccc(OCC(=O)N3CC[C@@]4(O)CCCC[C@H]4C3)cc2oc1=O` here?
Its value is inactive: -15.4%.

For `S=C(c1ccc(-c2ccccc2)o1)N1CCCCC1`, which lipid storage change, negative = inhibition is on record?
The lipid storage change, negative = inhibition was inconclusive: -2.13%.

With `CCc1nc(N2CCN(C(=O)c3ccco3)CC2)c2oc3ccccc3c2n1` as the molecule, how does the Potency read?
The Potency was inconclusive: 4.61 µM [falling, single point].

Which Potency does the source give for `COc1ccc(Cn2c(CCC(=O)NCc3ccco3)nc3cccnc32)cc1` here?
Its Potency is inconclusive: 6.51 µM [falling, single point].

For `CCn1c(-c2ccccc2)csc1=Nc1ccc(S(=O)(=O)O)cc1`, which lipid storage change, negative = inhibition is on record?
Its lipid storage change, negative = inhibition is inconclusive: 174%.

For `CCOC(=O)Cc1csc(SC(C)C(=O)NC2CCCCC2C)n1` (stereo not given), which lipid storage change, negative = inhibition is on record?
Its lipid storage change, negative = inhibition is “inconclusive”.

With `CCCCCCOC(=O)C1=C(C)NC(=O)NC1c1ccc(O)cc1` (stereo not given) as the molecule, how does the Potency read?
Its Potency is inconclusive: 4.61 µM [activator, single point].

With `O=C(O)c1c2c(nc3ccc(Cl)cc13)CCC2` as the molecule, how does the Potency read?
The Potency was active: 0.0517 µM.

For `CC(=O)c1ccc(OCC(=O)Nc2cccc(S(=O)(=O)N3CCCC3)c2)cc1`, which Potency is on record?
The Potency was inconclusive: 18.4 µM [falling, single point].

Which Potency does the source give for `N#Cc1cccc(NC(=O)CC2CCCC2)c1` here?
Its Potency is inconclusive: 29.1 µM [falling, single point].

Which Potency does the source give for `CC(C)NC(=O)c1nn(C)c2ccccc12` here?
Its Potency is inconclusive: 0.326 µM [activator, full curve].

With `O=C(O)c1ccc(-n2c(-c3ccc(Br)cc3)n[nH]c2=S)cc1` as the molecule, how does the Potency read?
The Potency was inconclusive: 29.1 µM [cytotoxic, single point].

With `O=C(COC(=O)C1=COCCO1)Nc1ccc2c(c1)OCO2` as the molecule, how does the lipid storage change, negative = inhibition read?
Its lipid storage change, negative = inhibition is inconclusive: 41.4%.

With `CCc1nnc(NC(=O)CSc2nnc3c(n2)[nH]c2ccccc23)s1` as the molecule, how does the lipid storage change, negative = inhibition read?
The lipid storage change, negative = inhibition was inconclusive: 40.5%.

Which lipid storage change, negative = inhibition does the source give for `Cc1sc2nc3ccc(N4CCCC4)nn3c(=O)c2c1C` here?
The lipid storage change, negative = inhibition was inconclusive: -19.3%.

With `CCC(C)(C)n1nnnc1C(c1cc2ccc(OC)cc2[nH]c1=O)N1CCCCC1` (stereo not given) as the molecule, how does the lipid storage change, negative = inhibition read?
Its lipid storage change, negative = inhibition is inconclusive: -14.2%.

With `COC(=O)c1cc2ccccc2c(-c2c(O)ccc3ccccc23)c1O` as the molecule, how does the lipid storage change, negative = inhibition read?
Its lipid storage change, negative = inhibition is inconclusive: -34.9%.

Which lipid storage change, negative = inhibition does the source give for `Cc1cccc(N2C(=O)C3C(c4ccccc4)OC4(C(=O)c5ccccc5C4=O)C3C2=O)c1` (stereo not given) here?
Its lipid storage change, negative = inhibition is inconclusive: -34.3%.

For `CCCCSc1nc(C)[nH]c1[N+](=O)[O-]`, which lipid storage change, negative = inhibition is on record?
The lipid storage change, negative = inhibition was inconclusive: -14.8%.

For `O=C(CNC(=O)c1ccccc1)OC(C(=O)Nc1cc(C(F)(F)F)ccc1Cl)c1ccccc1` (stereo not given), which lipid storage change, negative = inhibition is on record?
The lipid storage change, negative = inhibition was inconclusive: -12.6%.

Which lipid storage change, negative = inhibition does the source give for `COc1ccc2cc(C(=O)NCc3ccco3)c(=O)oc2c1` here?
Its lipid storage change, negative = inhibition is inconclusive: 76.5%.

With `CCC1CCCCN1CCN1C(=O)C2C(C(=O)Nc3cccc(OC)c3)C3C=CC2(O3)C1C(=O)NC1CCCCC1` (stereo not given) as the molecule, how does the Potency read?
Its Potency is inconclusive: 16.4 µM [falling, single point].

Which lipid storage change, negative = inhibition does the source give for `CC(=O)c1ccc(OCC(=O)c2ccc(-c3ccccc3)cc2)cc1` here?
Its lipid storage change, negative = inhibition is inconclusive: 86%.

For `CCN1C(=NCCOC)N[C@@H](c2ccccc2)[C@H](C(=O)OC)[C@H]1C`, which lipid storage change, negative = inhibition is on record?
Its lipid storage change, negative = inhibition is inconclusive: -11.9%.

Which lipid storage change, negative = inhibition does the source give for `COc1ccc(-c2nc3ccccc3nc2-c2ccc(OC)cc2)cc1` here?
The lipid storage change, negative = inhibition was inconclusive: 39.8%.

For `O=C(O)c1ccccc1-c1ccccc1C(=O)NNc1ccccc1`, which lipid storage change, negative = inhibition is on record?
Its lipid storage change, negative = inhibition is inconclusive: 0.5%.

For `COc1ccc(S(N)(=O)=O)cc1C(=O)NCC1(N2CCCCC2)CCCCC1`, which Potency is on record?
The Potency was inconclusive: 29.1 µM [falling, single point].

With `CCN(CC(=O)Nc1ccccc1OC)C(=O)c1ccc(NS(=O)(=O)c2ccc(C(C)=O)cc2)cc1` as the molecule, how does the lipid storage change, negative = inhibition read?
Its lipid storage change, negative = inhibition is inconclusive: 17.8%.

For `Cc1ccc(C(=O)NCC(=O)OCC(=O)c2ccc3c(c2)NC(=O)CO3)cc1`, which lipid storage change, negative = inhibition is on record?
Its lipid storage change, negative = inhibition is inconclusive: 18.3%.

For `Fc1ccc(-c2cc3nc4c(c(N5CCOCC5)n3n2)CCCC4)cc1`, which lipid storage change, negative = inhibition is on record?
The lipid storage change, negative = inhibition was inconclusive: -63.6%.

Which Potency does the source give for `CC1(C)CC(=O)C(CCC(=O)c2ccccc2)C(C)(C)N1` (stereo not given) here?
The Potency was inconclusive: 29.1 µM [falling, single point].

With `Cc1ncsc1CCOC(=O)c1ccc(Cl)cc1` as the molecule, how does the lipid storage change, negative = inhibition read?
Its lipid storage change, negative = inhibition is inconclusive: 10.4%.

Which lipid storage change, negative = inhibition does the source give for `Cc1oc(-c2ccccc2)nc1CS(=O)CC(=O)N1CCc2ccccc2C1` (stereo not given) here?
The lipid storage change, negative = inhibition was inconclusive: -1.73%.

Which lipid storage change, negative = inhibition does the source give for `CSc1nc(NCCCO)c2c3c(sc2n1)CN(C)CC3` here?
Its lipid storage change, negative = inhibition is inconclusive: 8.81%.

Which lipid storage change, negative = inhibition does the source give for `CCn1c(SCC(=O)N/N=C/C=C\c2ccccc2[N+](=O)[O-])nnc1-c1ccccc1` here?
The lipid storage change, negative = inhibition was inconclusive: -23.9%.

Which lipid storage change, negative = inhibition does the source give for `N/C(=N\NC(=O)c1ccc(F)cc1)c1cc2ccccc2oc1=O` here?
The lipid storage change, negative = inhibition was inconclusive: 14.8% [at 9.22 µM].

For `Cc1ccc(S(=O)(=O)N2CCCOC2CNC(=O)C(=O)NCc2ccc3c(c2)OCO3)cc1` (stereo not given), which Potency is on record?
The Potency was inconclusive: 20.6 µM [rising, partial curve].

With `CCOc1ccc(C2CC(=O)n3nc(C45CC6CC(CC(C6)C4)C5)nc3S2)cc1OC` (stereo not given) as the molecule, how does the lipid storage change, negative = inhibition read?
The lipid storage change, negative = inhibition was inconclusive: 36%.

For `Cn1nc(-c2ccccc2)cc1NC(=O)c1ccccc1`, which lipid storage change, negative = inhibition is on record?
Its lipid storage change, negative = inhibition is inconclusive: -20.5%.

For `COc1ccc(CNC(=O)c2noc(C(C)C)c2[N+](=O)[O-])cc1`, which “lipid storage change, negative = inhibition” value is on record?
Its value is inactive: -2.76%.

For `COc1ccc(CC(=O)OCC(=O)NCc2ccc(Cl)cc2)cc1`, which lipid storage change, negative = inhibition is on record?
Its lipid storage change, negative = inhibition is inconclusive: 14.3%.

Which lipid storage change, negative = inhibition does the source give for `O=C(OCCN(C1=NS(=O)(=O)c2ccccc21)c1ccc(Cl)cc1)c1ccco1` here?
The lipid storage change, negative = inhibition was inconclusive: 58.3%.

Which Potency does the source give for `C=CCOC(=O)CCCC(=O)NC1CCCCC1` here?
Its Potency is inconclusive: 18.4 µM [falling, single point].

Which lipid storage change, negative = inhibition does the source give for `COc1cc(/C=N/n2nnnc2N)ccc1OC(C)C` here?
The lipid storage change, negative = inhibition was inconclusive: 33.4%.

For `CCOC(=O)c1cc2c(C)n(-c3ccc(OCC)cc3)c(C)c2ccc1=O`, which lipid storage change, negative = inhibition is on record?
Its lipid storage change, negative = inhibition is inconclusive: -24.7%.
